Results taken from patent publication US9702005B2, “Hepatitis B viral variants with reduced susceptibility to nucleoside analogs and uses thereof” (priority 2002, dated 2017).
At least one compound was matched to its structure with a doubt left.

Tested on: HBV rt A181T/N236T/N238D
Experiment: In vitro drug susceptibility, recombinant HBV/baculovirus in HepG2 cells, rt A181T/N236T/N238D
Assay type: cell-based, hepatitis B virus
Conditions: triple HBV polymerase mutant
Description: The sensitivity/resistance profile of HBV mutants to ADV was examined in vitro using recombinant HBV/baculovirus. The procedure for analyzing the resistance profile is outlined in the following Examples 12-20.
Sf21 insect cells were maintained in supplemented Grace's insect medium further supplemented with 10% v/v heat-inactivated fetal bovine serum (Gibco BRL, Gaithersburg, Md.) in humidified incubator at 28° C. with CO2. HepG2 cells were maintained in minimal essential medium supplemented with 10% v/v heat-inactivated fetal bovine serum (MEM-FBS). HepG2 cells were grown in humidified 37° C. incubators at 5% v/v CO2.
The recombinant HBV/baculovirus system used for antiviral testing has been previously described (Delaney et al., Antimicrob Agents Chemother 45(6): 17054013, 2001). In brief, the recombinant transfer vector was created by excising a fragment containing the 1.3X HBV genome construct and cloning it into the multiple cloning region of a baculovirus vector pBlueBac4.5 (Invitrogen, Carlsbad, Calif.). […] The nucleotide sequence of the plasmid and the point mutations generated by site directed mutagenesis were confirmed by sequencing using the ABI Prism Big Dye Terminator Cycle Sequencing Ready Reaction Kit according to the manufacturer's specifications (Perkin Elmer, Cetus Norwalk, Conn.). […]

Nc1ccn([C@@H]2CS[C@H](CO)O2)c(=O)n1 [Lamivudine, (-)-β-2'-deoxy-3'-thiacytidine]
resistance of the mutant to the drug: resistant
